Measurements as given in patent EP4696708A1, “PEPTIDE TYROSINE-TYROSINE ANALOG AND USE THEREOF” (The United Bio-Technology (Hengqin) Co., Ltd., priority 2023, dated 2024).
Not every detail of the peptide structures is certain; ends, links or a residue may be inferred. *1 amine or outer side, *2 acyl side, *3 side chain or, on linkers, in order; H or OH if unused. Where a SMILES comes first, the peptide text is derived from it. Side-chain parts run from the residue outwards. [ ]: non-standard residue; d: D form. The star is where a group is joined. C18 diacid = O=C(O)CCCCCCCCCCCCCCCCC(=O)*; γGlu = O=C(O)[C@H](CCC(=O)[*:2])N[*:1]; AEEA = NCCOCCOCC(=O)O; Aib = CC(C)(N)C(=O)O

Test: effects on food intake and body weight of normal mice after a single subcutaneous injection
Type: in vivo
Conditions: C57BL/6 mice, over 3 days; for Body weight changes: vs baseline
[1] = single subcutaneous injection 3 nmol/kg
[2] = single subcutaneous injection 10 nmol/kg
[3] = single subcutaneous injection 30 nmol/kg

Compound	Accumulated food intake weight [1]	Body weight changes [1]	Accumulated food intake weight [2]	Body weight changes [2]	Accumulated food intake weight [3]	Body weight changes [3]
CC(C)C[C@H](NC(=O)[C@H](CCC(=O)O)NC(=O)[C@H](C)NC(=O)[C@H](Cc1ccc(O)cc1)NC(=O)[C@H](Cc1ccc(O)cc1)NC(=O)[C@H](CCCNC(=N)N)NC(=O)[C@H](CCC(N)=O)NC(=O)[C@H](Cc1c[nH]c2ccccc12)NC(=O)[C@H](CCC(=O)O)NC(=O)[C@H](CCC(=O)O)NC(=O)[C@@H]1CCCN1C(=O)[C@H](CO)NC(=O)[C@H](C)NC(=O)[C@H](CC(=O)O)NC(=O)C(C)(C)NC(=O)[C@H](CCC(=O)O)NC(=O)[C@@H]1CCCN1C(=O)[C@H](CCCCNC(=O)COCCOCCNC(=O)CC[C@H](NC(=O)CCCCCCCCCCCCCCCCC(=O)O)C(=O)O)NC(=O)[C@H](CCC(=O)O)NC(=O)[C@@H]1CCCN1C(=O)[C@H](CCCCN)NC(=O)[C@@H]1CCCN1)C(=O)N[C@@H](CCCNC(=N)N)C(=O)N[C@@H](Cc1c[nH]cn1)C(=O)N[C@@H](Cc1ccc(O)cc1)C(=O)N[C@@H](CC(C)C)C(=O)N[C@@H](CC(N)=O)C(=O)N[C@@H](Cc1c[nH]c2ccccc12)C(=O)N[C@@H](CC(C)C)C(=O)N[C@H](C(=O)N[C@@H](CCCNC(=N)N)C(=O)N[C@@H](CCC(N)=O)C(=O)N[C@@H](CCCNC(=N)N)C(=O)N[C@@H](Cc1ccc(O)cc1)C(N)=O)[C@@H](C)O [Analogue 2]	10.65 ± 0.38 g	2.28%±1.77%	8.72 ± 0.12 g	0.19%±1.39%	6.29 ± 0.21 g	-6.08%±1.33%
CC(C)C[C@H](NC(=O)[C@H](Cc1ccc(O)cc1)NC(=O)[C@H](Cc1c[nH]cn1)NC(=O)[C@H](CCCNC(=N)N)NC(=O)[C@H](CC(C)C)NC(=O)[C@H](CCC(=O)O)NC(=O)C(C)(C)NC(=O)[C@H](Cc1ccc(O)cc1)NC(=O)[C@H](Cc1ccc(O)cc1)NC(=O)[C@H](CCCNC(=N)N)NC(=O)[C@H](CCC(N)=O)NC(=O)[C@H](Cc1c[nH]c2ccccc12)NC(=O)[C@H](CCC(=O)O)NC(=O)[C@H](CCC(=O)O)NC(=O)[C@@H]1CCCN1C(=O)[C@H](CO)NC(=O)[C@H](C)NC(=O)[C@H](CC(=O)O)NC(=O)C(C)(C)NC(=O)[C@H](CCC(=O)O)NC(=O)[C@@H]1CCCN1C(=O)[C@H](CCCCNC(=O)COCCOCCNC(=O)CC[C@H](NC(=O)CCCCCCCCCCCCCCCCC(=O)O)C(=O)O)NC(=O)[C@H](CCC(=O)O)NC(=O)[C@@H]1CCCN1C(=O)[C@H](CCCCN)NC(=O)[C@@H]1CCCN1)C(=O)N[C@@H](CC(N)=O)C(=O)N[C@@H](Cc1c[nH]c2ccccc12)C(=O)N[C@@H](CC(C)C)C(=O)N[C@H](C(=O)N[C@@H](CCCNC(=N)N)C(=O)N[C@@H](CCC(N)=O)C(=O)N[C@@H](CCCNC(=N)N)C(=O)N[C@@H](Cc1ccc(O)cc1)C(N)=O)[C@@H](C)O [Analogue 3]	9.73 ± 0.48 g	-1.04%±2.02%	8.24 ± 0.27 g	-0.69%±1.64%	6.24 ± 0.26 g	-6.52%±1.37%
CC(C)C[C@H](NC(=O)[C@H](Cc1ccc(O)cc1)NC(=O)[C@H](Cc1c[nH]cn1)NC(=O)[C@H](CCCNC(=N)N)NC(=O)[C@H](CC(C)C)NC(=O)[C@H](CO)NC(=O)C(C)(C)NC(=O)[C@H](Cc1ccc(O)cc1)NC(=O)[C@H](Cc1ccc(O)cc1)NC(=O)[C@H](CCCNC(=N)N)NC(=O)[C@H](CCC(N)=O)NC(=O)[C@H](Cc1c[nH]c2ccccc12)NC(=O)[C@H](CCC(=O)O)NC(=O)[C@H](CCC(=O)O)NC(=O)[C@@H]1CCCN1C(=O)[C@H](CO)NC(=O)C(C)(C)NC(=O)[C@H](CC(=O)O)NC(=O)[C@H](CCC(=O)O)NC(=O)[C@H](CCC(=O)O)NC(=O)[C@@H]1CCCN1C(=O)[C@H](CCCCNC(=O)COCCOCCNC(=O)CC[C@H](NC(=O)CCCCCCCCCCCCCCCCC(=O)O)C(=O)O)NC(=O)[C@H](CCC(=O)O)NC(=O)[C@@H]1CCCN1C(=O)[C@H](CCCCN)NC(=O)[C@@H]1CCCN1)C(=O)N[C@@H](CC(N)=O)C(=O)N[C@@H](Cc1c[nH]c2ccccc12)C(=O)N[C@@H](CC(C)C)C(=O)N[C@H](C(=O)N[C@@H](CCCNC(=N)N)C(=O)N[C@@H](CCC(N)=O)C(=O)N[C@@H](CCCNC(=N)N)C(=O)N[C@@H](Cc1ccc(O)cc1)C(N)=O)[C@@H](C)O [Analogue 1] (H-PKPEK([AEEA-γGlu-C18 diacid])PEED[Aib]SPEEWQRYY[Aib]SLRHYLNWLTRQRY-NH2)	11.54 ± 0.40 g	2.32%±2.53%	9.29 ± 0.27 g	1.23%±2.92%	8.10 ± 0.26 g	0.51%±2.56%
